Library screening results

Each number is a percent effect as filed. The controls that fix the scale are not given in the record; negative values are as filed. Compounds were drawn at random from those tested, without regard to their results. A dash means the value is not listed here; it may have been measured.

A: 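Whole-cell assay for inhibitors of Mycobacterium tuberculosis growth, labelled Cornell in the record; the read-out is not stated. The concentration is filed as 10 mM, unlikely as a test dose, so the dose is not known. The record gives no direction; compounds strong in two other growth screens of this library score well above the rest, so higher reads as stronger inhibition. Of about 53,000 compounds tested this way, about 900 (1.7%) reached 50% or more in at least one test.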
B: 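Assay on Mycobacterium tuberculosis, filed only as a heat shock assay from Cornell; the read-out is not stated. The concentration is filed as 10 mM, unlikely as a test dose, so the dose is not known. Direction is inferred from retests: higher values go with stronger inhibition. Size under these conditions: about 69,000 compounds, about 930 of them at 50% or above in at least one test.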

compound: O=C(C[S+]([O-])Cc1csc(C2CCCC2)n1)Nc1ccccc1 (stereo not shown)
A: 105.1
B: 3.315

compound: CC(CNC(=O)NCc1ccc2c(c1)OCO2)CC1(C)OCCO1 (stereo not shown)
A: 7.42
B: -0.3794

compound: COc1ccccc1CC(=O)NCc1ccnc(NC2CC2)c1
A: 31
B: -59.42

compound: [H][C@@]12C[C@H](C(=O)N3CCCCO3)CN(C(=O)C3CCOCC3)[C@]1([H])CCO2
A: 30.79
B: -5.423

compound: CSCCCN1C[C@H](NC(=O)c2ccc(C#N)nc2)[C@@H](C2CC2)C1
A: -2.145
B: -3.578

compound: Cc1nccc(-c2ccccc2)c1C(=O)N1CCC2(CN(C)C(=O)O2)C1 (stereo not shown)
A: -27.03
B: 3.429

compound: Cc1ncc(CNC(=O)N(CCCO)C2CCc3ccccc32)s1 (stereo not shown)
B: -10.33

compound: CCc1nc(CC(=O)NC(C#N)CC)cs1 (stereo not shown)
A: -29.62
B: -31.96

compound: CCc1nsc(N2CCN(C(=O)COc3ccccc3)CC2)n1
A: 7.083
B: 20.66

compound: OCCc1cc(CC2(NCc3ccncc3)COC2)no1
A: -4.937
B: -0.5503

compound: CCc1noc(CS(=O)(=O)c2cccc(OC)c2)n1
B: 11.43

compound: CCCNC(=O)c1cc(-c2ccn(C(C)C)n2)n2ccccc12
A: 54.8
B: 8.137

compound: CCCn1nc2c(cc1=O)CN(Cc1nc(CCOC)no1)CC2
A: 18.28
B: 12.71

compound: CC(C)Nc1nnc(SCc2nnc(C(C)(C)C)o2)s1
A: -7.19
B: 9.35

compound: NC(=O)C1CCN(c2ccc3cc(Br)ccc3n2)C1 (stereo not shown)
A: -19.41
B: -21.23

compound: CC(=O)Nc1nc(C(=O)N2CCC(Nc3cccnn3)CC2)cs1
A: -42.9
B: 7.827

compound: Cc1nn(C)cc1C(=O)N1CCC(C(=O)c2nc3ccccc3s2)CC1
A: 26.37
B: -2.642

compound: O=C(NCCc1ccccc1)N1CCC(C2OCCO2)CC1
A: -21.05
B: 4.677

compound: Cc1cc(C(=O)N2CCC(CCC(=O)NCCN(C)C)CC2)ccc1O
A: -42.94
B: -4.675

compound: CCc1cc(NC(=O)N2CCC(Oc3cccnc3)C2)n(C)n1 (stereo not shown)
A: -4.943
B: -2.805

compound: CN(C)C(=O)CCC[S+]([O-])Cc1ccc(Cl)c(Cl)c1 (stereo not shown)
A: 6.797
B: 18.1

compound: c1ccc(-c2nc(CCNCc3cccnc3)co2)cc1
A: 14
B: 8.032

compound: O=C(NCCc1cc(N2CCOCC2)nc(NC2CC2)n1)C1CC1
A: 33.35
B: 2.625

compound: COc1ccc(CN(CCC#N)CCN2CCOCC2)c(OC)c1
A: 10.08
B: -13.54

compound: CC(C)Cc1cc(C(=O)N2CCC(N3CCCC3)CC2)cc(O)n1
A: 9.8
B: 7.547

compound: O=C(c1ccc(-n2ccnc2)nn1)N1CCCCC1Cn1cccn1 (stereo not shown)
A: 8.254
B: -5.555

compound: c1ccc(NCCn2cc(C3CCCNC3)nn2)cc1 (stereo not shown)
A: -35.64
B: -6.48

compound: CC(=O)c1cc(CN2CCCC2c2nc3ccc(C)cc3[nH]2)cs1 (stereo not shown)
A: 15.85
B: 3.171

compound: CC(C)(C)c1n[nH]cc1CNCC1CCN(CC(F)(F)F)C1.Cl (stereo not shown)
A: 25.61
B: -7.348

compound: COc1cc2nc(C)sc2cc1NC(=O)C(C)NC(N)=O (stereo not shown)
A: -6.427
B: 2.448

compound: COC(=O)c1cccc(C(=O)N2CCN(c3ccccc3F)CC2)n1
A: -15.46
B: 5.443

compound: CC(C)c1nn(C)c(N(C)C)c1CNC1CCOc2ccccc21 (stereo not shown)
B: -23.08

compound: CNC(=O)c1cc(NC(=O)NCC2CCS(=O)(=O)C2)ccc1OC (stereo not shown)
A: -25.71
B: -32.76

compound: CCn1c(CN(C)C)nnc1C1CCN(Cc2ccc(C)s2)CC1
A: 9.745
B: -2.819

compound: CN(C)C(=O)CCCn1ccc(NC(=O)NCc2cccc(F)c2)n1
A: 3.584
B: -18.93

compound: Cc1nc2cc(O)nn2c(C)c1CCC(=O)NCCCC(C)C
A: -55.67
B: -0.01064

compound: CC(C)=CCC1(C(=O)O)CCCN(c2ccnc(N)n2)C1 (stereo not shown)
A: -6.508
B: -25.11

compound: CN(C)CCCNC(=O)c1cnc(Cc2ccc(F)cc2)s1
A: 8.15
B: -28.12

compound: CCN1CC(C)(C)CN(C(=O)CCc2ccccc2)CC1=O
A: -5.277
B: 22.76

compound: CCCc1noc(CNC2CCCN(Cc3noc(C4CC4)n3)C2)n1 (stereo not shown)
B: 1.649

compound: COCCC1(CO)CCCN(C(=O)c2cccnc2OC)C1 (stereo not shown)
A: -15.51
B: 5.898

compound: CCc1nnc2n1CCN(C(=O)C(OC)c1ccccc1)C2 (stereo not shown)
A: 25.4
B: 1.743

compound: O=C(c1cccc(Cn2ccnc2)c1)N1CCCC(n2cccn2)C1 (stereo not shown)
B: -3.013

For reference, 5 entries once more:

compound,A,B
CCc1cc(NC(=O)N2CCC(Oc3cccnc3)C2)n(C)n1 (stereo not shown),-4.943,-2.805
CSCCCN1C[C@H](NC(=O)c2ccc(C#N)nc2)[C@@H](C2CC2)C1,-2.145,-3.578
c1ccc(NCCn2cc(C3CCCNC3)nn2)cc1 (stereo not shown),-35.64,-6.48
CC(C)c1nn(C)c(N(C)C)c1CNC1CCOc2ccccc21 (stereo not shown),-,-23.08
CCN1CC(C)(C)CN(C(=O)CCc2ccccc2)CC1=O,-5.277,22.76

Source: ChEMBL document CHEMBL3988442, “University of Dundee, Small-Polar-MMV Screening Library” (2021).